Counter-ions that a name gives are not always drawn. Some results were stated once for a whole list of compounds, not compound by compound. For some of these results: At least one compound was matched to its structure with a doubt left.
What was measured:
[1] = molecular target: T1, neuronal constitutive NO synthase (Rattus norvegicus, UniProt P29476); test: Effects on neuronal constitutive NO synthase of a rat's cerebellum (conversion of [3H]L-arginine into [3H]L-citrulline); format: biochemical; settings: Sprague-Dawley rat cerebellum homogenate; conversion by NO synthase of [3H]L-arginine into [3H]L-citrulline, 15 min
T1 construct: The reaction is initiated by adding 50 μl of homogenate; from tissue; host or cells: cerebellum of Sprague-Dawley rats (Charles River), homogenate centrifuged at 21000 g

[2] = system: lipidic peroxidation of the cerebral cortex of a rat; test: Effects on lipidic peroxidation of the cerebral cortex of a rat (MDA concentration); format: biochemical; settings: homogenate of rat's cerebral cortex; peroxidation initiated by FeCl2/EDTA/ascorbic acid, 30 minutes at 37° C.; MDA quantified at 586 nm

| Structure (SMILES) | IC50 [1] [µM] | IC50 [2] [µM] |
| --- | --- | --- |
| COc1ccc(O)c(C(=O)NCCc2ccc(NC(=N)c3cccs3)cc2)c1 [Example 1, 2-hydroxy-5-methoxy-N-{2-[4-[(2-thienyl(imino)methyl)amino]phenyl]ethyl}-benzamide hydrochloride] | < 3.5 | < 30 |
| COc1cc(C)c(O)c(C(=O)NCCc2ccc(N=C(N)c3cccs3)cc2)c1 [Example 33, N-(4-{[amino(2-thienyl)methylidene]amino}phenethyl)-2-hydroxy-5-methoxy-3-methylbenzamide] |  | < 30 |
| CC(C)(C)c1cc(C(=O)NCC(=O)Nc2ccc(N=C(N)c3cccs3)cc2)cc(C(C)(C)C)c1O [Example 34, N-[2-(4-{[amino(2-thienyl)methylidene]amino}anilino)-2-oxoethyl]-3,5-di(tert-butyl)-4-hydroxybenzamide] |  | < 30 |
| CN(C)c1ccc(NC(=O)CCCc2ccc(N=C(N)c3cccs3)cc2)cc1 [Example 37, 4-(4-{[amino(2-thienyl)methylidene]amino}phenyl)-N-[4-(dimethylamino)phenyl]butanamide hydrochloride] |  | < 30 |
| CN(C)c1ccc(NC(=O)CCCCc2ccc(N=C(N)c3cccs3)cc2)cc1 [Example 38, 5-(4-{[amino(2-thienyl)methylidene]amino}phenyl)-N-[4-(dimethylamino)phenyl]pentanamide hydrochloride] | < 3.5 | < 30 |
| NC(=Nc1ccc(CCNC(=O)/C=C/c2ccccc2O)cc1)c1cccs1 [Example 39, (E)-N-(4-{[amino(2-thienyl)methylidene]amino}phenethyl)-3-(2-hydroxyphenyl)-2-propenamide] | < 3.5 | < 30 |
| CC(C)(C)c1cc(SCC(=O)N2CCN(c3ccc(NC(=N)c4cccs4)cc3)CC2)cc(C(C)(C)C)c1O [Example 45, N-{4-[4-(2-{[3,5-di(tert-butyl)-4-hydroxyphenyl]thio}acetyl)-1-piperazinyl]phenyl}-2-thiophenecarboximidamide] |  | < 30 |
| CC(C)(C)c1cc(OCC(=O)NCCc2ccc(N=C(N)c3cccs3)cc2)cc(C(C)(C)C)c1O [Example 47, N-(4-{[amino(2-thienyl)methylidene]amino}-phenethyl)-2-[3,5-di(tert-butyl)-4-hydroxyphenoxy]acetamide hydroiodide] |  | < 30 |
| CN(C)c1ccc(NC(=O)CCNCc2cccc(N=C(N)c3cccs3)c2)cc1 [Example 50, 3-[(3-{[amino(2-thienyl)methylidene]amino}-benzyl)amino]-N-[4-(dimethylamino)phenyl]propanamide hydrochloride] | < 3.5 | < 30 |
| NC(=Nc1cccc(CNCCC(=O)Nc2ccc3c(c2)CCN3Cc2cccc3ccccc23)c1)c1cccs1 [Example 56, 3-[(3-{[amino(2-thienyl)methylidene]amino}benzyl)amino]-N-[1-(1-naphthylmethyl)-2,3-dihydro-1H-indol-5-yl]propanamide] | < 3.5 | < 30 |
| COc1cc(C=CCNCCc2ccc(N=C(N)c3cccs3)cc2)ccc1O.O=C(O)/C=C/C(=O)O.O=C(O)/C=C/C(=O)O [Example 61, N′-[4-(2-{[3-(4-hydroxy-3-methoxyphenyl)-2-propenyl]amino}ethyl)phenyl]-2-thiophenecarboximidamide difumarate] | < 3.5 | < 30 |
| COc1cc(C=CCNCCc2ccc(N=C(N)c3cccs3)cc2)cc(OC)c1O.Cl.Cl [Example 62, N′-[4-(2-{[3-(4-hydroxy-3,5-dimethoxyphenyl)-2-propenyl]amino}ethyl)phenyl]-2-thiophenecarboximidamide dihydrochloride] | < 3.5 | < 30 |
| CC1=C(C)C(=O)C(CCC(C)(O)C(=O)N2CCN(c3ccc(N=C(N)c4cccs4)cc3)CC2)=C(C)C1=O (stereo not shown) [Example 74, N′-(4-{4-[2-hydroxy-2-methyl-4-(2,4,5-trimethyl-3,6-dioxo-1,4-cyclohexadien-1-yl)butanoyl]-1-piperazinyl}phenyl)-2-thiophene-carboximidamide] |  | < 30 |
| NC(=Nc1ccc(N2CCN(c3cc(N4CCCC4)nc(N4CCCC4)n3)CC2)cc1)c1cccs1 [Example 76, N′-(4-{4-[2,6-di(1-pyrrolidinyl}-4-pyrimidinyl]-1-piperazinyl)phenyl)-2-thiophenecarboximidamide] |  | < 30 |
| CN(C)c1ccc(NC(=O)NCCc2ccc(N=C(N)c3cccs3)cc2)cc1 [Example 77, N′-{4-[2-({[4-(dimethylamino)anilino]carbonyl}amino)-ethyl]phenyl}-2-thiophenecarboximidamide hydroiodide] |  | < 30 |
| Cc1c(C)c2c(c(C)c1O)CCC(C)(C(=O)NCC1(c3ccc(N=C(N)c4cccs4)cc3)CCC1)O2 (stereo not shown) [Example 78, N-{[1-(4-{[amino(2-thienyl)methylidene]-amino}phenyl)-cyclobutyl]methyl}-6-hydroxy-2,5,7,8-tetramethyl-2-chromanecarboxamide hydrochloride] |  | < 30 |

Further lines, results first:

| IC50 [1] [µM] | IC50 [2] [µM] | Structure (SMILES) |
| --- | --- | --- |
| < 3.5 | < 30 | N=C(Nc1ccc(CCNC(=O)c2cc(O)ccc2O)cc1)c1cccs1 [Example 3, 2,5-dihydroxy-N-{2-[4[(2-thienyl(imino)methyl)amino]phenyl]ethyl-benzamide hydrochloride] |
| < 3.5 | < 30 | NC(=Nc1ccc(CCNC(=O)c2cc(N)ccc2O)cc1)c1cccs1 [Example 32, 5-amino-N-(4-{[amino(2-thienyl)methylidene]amino}phenethyl)-2-hydroxybenzamide] |
| < 3.5 | < 30 | NC(=Nc1ccc(CCNC(=O)/C=C/c2ccc(O)c(O)c2)cc1)c1cccs1 [Example 41, (E)-N-(4-{[amino(2-thienyl)methylidene]amino}phenethyl)-3-(3,4-dihydroxyphenyl)-2-propenamide] |
| < 3.5 | < 30 | COc1cc(/C=C/C(=O)NCCc2ccc(N=C(N)c3cccs3)cc2)cc(OC)c1O [Example 42, (E)-N-(4-{[amino(2-thienyl)methylidene]amino}phenethyl)-3-(4-hydroxy-3,5-dimethoxyphenyl)-2-propenamide] |
|  | < 30 | CC(C)(C)c1cc(OCC(=O)N2CCN(c3ccc(N=C(N)c4cccs4)cc3)CC2)cc(C(C)(C)C)c1O [Example 44, N′-[4-(4-{2-[3,5-di(tert-butyl)-4-hydroxy-phenoxy]acetyl}-1-piperazinyl)phenyl]-2-thiophenecarboximidamide dihydrochloride] |
| < 3.5 | < 30 | CC(C)(C)c1cc(OCCNCCc2ccc(NC(=N)c3cccs3)cc2)cc(C(C)(C)C)c1O [Example 48, N-{4-[2-({2-[3,5-di(tert-butyl)-4-hydroxyphenoxy]-ethyl}amino)ethyl]phenyl}-2-thiophenecarboximidamide hydrochloride] |
| < 3.5 | < 30 | CC(C)(C)c1cc(NC(=O)CCNCc2cccc(N=C(N)c3cccs3)c2)cc(C(C)(C)C)c1O [Example 51, 3-[(3-{[amino(2-thienyl)methylidene]amino}-benzyl)amino]-N-[3,5-di(tert-butyl)-4-hydroxyphenyl]propanamide hydrochloride] |
| < 3.5 | < 30 | CN1CCc2cc(NC(=O)CCNCc3cccc(N=C(N)c4cccs4)c3)ccc21 [Example 54, 3-[(3-{[amino(2-thienyl)methylidene]amino}-benzyl)amino]-N-(1-methyl-2,3-dihydro-1H-indol-5-yl)propanamide hydrochloride] |
| < 3.5 | < 30 | NC(=Nc1cccc(CNCCC(=O)Nc2ccc3c(c2)CCN3Cc2ccccc2)c1)c1cccs1 [Example 55, 3-[(3-{[amino(2-thienyl)methylidene]amino}-benzyl)amino]-N-(1-benzyl-2,3-dihydro-1H-indol-5-yl)propanamide hydrochloride] |
| < 3.5 | < 30 | CN(C)c1ccc(O)c(CNCCc2ccc(N=C(N)c3cccs3)cc2)c1 [Example 57, N′-[4-(2-{[5-(dimethylamino)-2-hydroxybenzyl]amino}ethyl)phenyl]-2-thiophenecarboximidamide] |
|  | < 30 | NC(=Nc1ccc(N2CC=C(c3ccccc3)CC2)cc1)c1cccs1 [Example 70, N′-{4-[4-phenyl-3,6-dihydro-1(2H)-pyridinyl]phenyl}-2-thiophenecarboximidamide] |
